Assay results as given in article PMC4654474.
Results are given in words; binding and its absence hold for the method and conditions named. Binding seen in cells or lysates may run through a third protein. Some results given as binding are weak or reduced against the parent protein; the word gives no strength. One block for each substance: values may come before it.

Chains of the proteins cited; added tags and fusions are not shown. Residues count along the entry.
UniProt Q9JM13: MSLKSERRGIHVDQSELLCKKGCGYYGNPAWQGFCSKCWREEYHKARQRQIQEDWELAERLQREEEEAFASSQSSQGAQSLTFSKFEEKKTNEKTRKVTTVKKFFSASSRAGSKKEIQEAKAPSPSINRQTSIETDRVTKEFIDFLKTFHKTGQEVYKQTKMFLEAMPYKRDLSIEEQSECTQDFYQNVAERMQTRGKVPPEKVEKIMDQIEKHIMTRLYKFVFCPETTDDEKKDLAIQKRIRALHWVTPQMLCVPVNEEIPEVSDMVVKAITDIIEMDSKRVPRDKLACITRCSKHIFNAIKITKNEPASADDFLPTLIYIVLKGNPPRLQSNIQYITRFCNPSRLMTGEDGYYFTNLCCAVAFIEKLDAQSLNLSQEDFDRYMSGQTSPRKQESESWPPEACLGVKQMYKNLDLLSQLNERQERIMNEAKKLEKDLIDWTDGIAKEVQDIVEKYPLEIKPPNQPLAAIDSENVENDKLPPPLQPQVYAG
UniProt Q01097, residues 27-1482: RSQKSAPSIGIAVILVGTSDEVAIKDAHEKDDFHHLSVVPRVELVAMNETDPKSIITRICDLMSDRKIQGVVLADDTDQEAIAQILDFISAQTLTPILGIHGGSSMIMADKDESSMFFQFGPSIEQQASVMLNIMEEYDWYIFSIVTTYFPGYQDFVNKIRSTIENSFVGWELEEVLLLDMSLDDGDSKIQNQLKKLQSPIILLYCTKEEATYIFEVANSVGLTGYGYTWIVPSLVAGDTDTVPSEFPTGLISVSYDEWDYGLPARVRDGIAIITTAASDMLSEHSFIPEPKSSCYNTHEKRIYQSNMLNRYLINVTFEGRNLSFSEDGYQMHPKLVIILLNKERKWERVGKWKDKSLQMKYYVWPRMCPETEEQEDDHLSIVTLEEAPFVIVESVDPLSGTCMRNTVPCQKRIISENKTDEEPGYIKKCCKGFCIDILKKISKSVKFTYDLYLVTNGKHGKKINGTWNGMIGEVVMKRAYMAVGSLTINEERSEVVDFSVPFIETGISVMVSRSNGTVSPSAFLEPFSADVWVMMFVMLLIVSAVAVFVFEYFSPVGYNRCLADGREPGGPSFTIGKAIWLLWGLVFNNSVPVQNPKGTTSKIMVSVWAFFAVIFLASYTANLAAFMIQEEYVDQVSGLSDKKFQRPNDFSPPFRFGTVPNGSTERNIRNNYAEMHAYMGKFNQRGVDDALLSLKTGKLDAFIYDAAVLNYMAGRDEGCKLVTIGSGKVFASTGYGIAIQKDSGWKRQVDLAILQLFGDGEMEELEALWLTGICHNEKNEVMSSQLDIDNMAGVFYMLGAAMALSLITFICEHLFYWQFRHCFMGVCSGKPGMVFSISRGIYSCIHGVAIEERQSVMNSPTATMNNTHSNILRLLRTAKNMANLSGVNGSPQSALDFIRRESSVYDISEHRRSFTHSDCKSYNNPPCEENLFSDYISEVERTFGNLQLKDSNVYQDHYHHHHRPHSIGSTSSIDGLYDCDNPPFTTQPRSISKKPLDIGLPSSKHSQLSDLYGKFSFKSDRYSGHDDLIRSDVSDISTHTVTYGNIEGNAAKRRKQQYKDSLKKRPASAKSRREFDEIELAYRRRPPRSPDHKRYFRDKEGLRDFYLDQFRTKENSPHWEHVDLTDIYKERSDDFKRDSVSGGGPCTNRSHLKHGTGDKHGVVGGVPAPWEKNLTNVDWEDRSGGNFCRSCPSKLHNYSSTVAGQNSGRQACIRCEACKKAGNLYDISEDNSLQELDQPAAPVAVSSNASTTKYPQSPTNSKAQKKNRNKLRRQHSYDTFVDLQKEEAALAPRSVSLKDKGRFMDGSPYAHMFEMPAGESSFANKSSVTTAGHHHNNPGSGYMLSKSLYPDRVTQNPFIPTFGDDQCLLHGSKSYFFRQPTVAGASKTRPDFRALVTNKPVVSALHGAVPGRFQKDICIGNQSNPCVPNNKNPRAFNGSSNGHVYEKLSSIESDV
UniProt Q8CFN2: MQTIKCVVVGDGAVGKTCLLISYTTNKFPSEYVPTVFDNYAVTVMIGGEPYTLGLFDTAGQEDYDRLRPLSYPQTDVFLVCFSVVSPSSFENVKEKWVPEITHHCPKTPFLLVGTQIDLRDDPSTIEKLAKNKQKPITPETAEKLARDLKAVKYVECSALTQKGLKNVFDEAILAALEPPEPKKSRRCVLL
UniProt Q00960, residues 27-1482: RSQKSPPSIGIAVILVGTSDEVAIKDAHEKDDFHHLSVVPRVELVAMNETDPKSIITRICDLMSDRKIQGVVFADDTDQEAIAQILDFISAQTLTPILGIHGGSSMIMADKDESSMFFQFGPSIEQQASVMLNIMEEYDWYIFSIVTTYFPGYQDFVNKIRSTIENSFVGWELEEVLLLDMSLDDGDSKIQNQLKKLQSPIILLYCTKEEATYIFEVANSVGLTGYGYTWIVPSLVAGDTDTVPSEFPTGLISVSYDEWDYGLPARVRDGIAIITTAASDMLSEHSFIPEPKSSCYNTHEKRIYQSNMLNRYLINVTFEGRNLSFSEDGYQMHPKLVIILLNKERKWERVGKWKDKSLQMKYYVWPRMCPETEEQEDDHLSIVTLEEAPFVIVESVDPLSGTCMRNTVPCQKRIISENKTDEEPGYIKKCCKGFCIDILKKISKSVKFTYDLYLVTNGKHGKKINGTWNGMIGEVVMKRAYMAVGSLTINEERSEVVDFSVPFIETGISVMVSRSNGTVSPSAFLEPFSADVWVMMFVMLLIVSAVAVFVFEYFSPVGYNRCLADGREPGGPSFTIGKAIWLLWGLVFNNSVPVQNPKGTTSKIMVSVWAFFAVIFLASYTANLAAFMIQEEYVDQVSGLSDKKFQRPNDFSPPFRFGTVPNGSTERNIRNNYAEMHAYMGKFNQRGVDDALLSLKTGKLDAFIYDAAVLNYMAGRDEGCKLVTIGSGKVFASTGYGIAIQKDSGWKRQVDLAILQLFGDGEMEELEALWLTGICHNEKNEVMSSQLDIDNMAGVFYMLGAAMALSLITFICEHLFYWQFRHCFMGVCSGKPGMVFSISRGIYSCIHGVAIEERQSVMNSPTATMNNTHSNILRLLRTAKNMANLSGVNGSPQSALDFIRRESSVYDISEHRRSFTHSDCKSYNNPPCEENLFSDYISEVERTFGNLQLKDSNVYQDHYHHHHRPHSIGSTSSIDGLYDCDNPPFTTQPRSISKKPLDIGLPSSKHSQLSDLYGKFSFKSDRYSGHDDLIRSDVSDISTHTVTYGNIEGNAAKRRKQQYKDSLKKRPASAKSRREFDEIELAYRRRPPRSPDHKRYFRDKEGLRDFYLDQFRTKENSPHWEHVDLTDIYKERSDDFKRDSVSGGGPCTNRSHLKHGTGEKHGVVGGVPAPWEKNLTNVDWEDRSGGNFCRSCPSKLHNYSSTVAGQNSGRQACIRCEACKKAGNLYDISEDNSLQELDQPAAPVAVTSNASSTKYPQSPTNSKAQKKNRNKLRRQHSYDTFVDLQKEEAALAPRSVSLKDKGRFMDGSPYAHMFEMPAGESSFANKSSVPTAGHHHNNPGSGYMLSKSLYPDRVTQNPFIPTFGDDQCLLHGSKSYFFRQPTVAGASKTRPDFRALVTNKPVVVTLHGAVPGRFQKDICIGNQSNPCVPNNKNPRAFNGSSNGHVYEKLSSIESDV
UniProt A0A8I6ABA8: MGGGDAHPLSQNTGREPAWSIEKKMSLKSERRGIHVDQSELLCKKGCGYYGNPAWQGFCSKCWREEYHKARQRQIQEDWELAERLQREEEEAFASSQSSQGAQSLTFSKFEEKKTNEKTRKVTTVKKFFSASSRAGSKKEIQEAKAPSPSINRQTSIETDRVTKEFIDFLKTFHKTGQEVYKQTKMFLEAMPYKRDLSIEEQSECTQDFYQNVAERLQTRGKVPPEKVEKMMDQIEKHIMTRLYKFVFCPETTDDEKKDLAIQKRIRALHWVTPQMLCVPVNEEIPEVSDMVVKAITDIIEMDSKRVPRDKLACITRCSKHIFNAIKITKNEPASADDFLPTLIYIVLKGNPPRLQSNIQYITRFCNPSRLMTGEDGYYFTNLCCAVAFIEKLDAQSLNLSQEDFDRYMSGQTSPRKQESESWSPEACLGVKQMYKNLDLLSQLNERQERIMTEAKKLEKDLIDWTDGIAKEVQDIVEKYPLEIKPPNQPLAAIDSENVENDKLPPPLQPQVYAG

Tests used:
[1] = target: RabGEF1 (mouse, endogenous in hippocampus) (mouse (endogenous in hippocampus)) (UniProt Q9JM13); experiment: co-IP; mouse hippocampus lysate; immunoprecipitation with anti-NR2B or anti-RabGEF1 antibody, immunoblot with anti-RabGEF1 or anti-NR2B; rabbit IgG as negative control
[2] = target: RabGEF1 (rat, endogenous in PC12 cells) (rat (endogenous in PC12)); experiment: co-IP; PC12 cell lysates (0.5% Triton-X in PSB), NGF for 0, 0.5 or 1.0 hour; immunoprecipitation with anti-RabGEF1 or anti-NR2B antibody, Protein A/G agarose, Western blot; rabbit IgG as negative control
[3] = target: NMDA receptor NR2B subunit (mouse, endogenous in hippocampus) (mouse (endogenous in hippocampus)) (UniProt Q01097); experiment: co-IP; mouse hippocampus lysate; immunoprecipitation with anti-NR2B or anti-RabGEF1 antibody, immunoblot with anti-RabGEF1 or anti-NR2B; rabbit IgG as negative control
[4] = target: Cdc42 (active, GTP-bound; endogenous in PC12 cells) (rat (endogenous in PC12)) (UniProt Q8CFN2); experiment: pull-down; RabGEF1 found together with the active GTP-bound GTPase that was affinity-precipitated from PC12 lysates (NGF 0 or 15 min) by GST-Raf1-RBD, GST-Pak1-PBD or GST-Rhotekin-RBD; Western blot with anti-RabGEF1
[5] = target: NMDA receptor NR2B subunit (rat, endogenous in PC12 cells) (rat (endogenous in PC12)) (UniProt Q00960); experiment: co-IP; PC12 cell lysates (0.5% Triton-X in PSB), NGF for 0, 0.5 or 1.0 hour; immunoprecipitation with anti-RabGEF1 or anti-NR2B antibody, Protein A/G agarose, Western blot; rabbit IgG as negative control

binding [1]: binds
Substance: NMDA receptor NR2B subunit (mouse, endogenous in hippocampus) (from UniProt Q01097 27-1482)

binding [2]: binds
Substance: NMDA receptor NR2B subunit (rat, endogenous in PC12 cells) (from UniProt Q00960 27-1482)

binding [3]: binds
Substance: RabGEF1 (mouse, endogenous in hippocampus) (from UniProt Q9JM13 1-491)

binding [4]: binds
binding [5]: binds
Substance: RabGEF1 (rat, endogenous in PC12 cells) (from UniProt A0A8I6ABA8 1-515)
